Experimental data published in patent publication US8455553B2, “Methods and compositions for prevention and treatment of inflammatory disease, autoimmune disease and transplant rejection” (The Regents of the University of California, priority 2001, dated 2013).
For at least one compound, name, drawing or mass did not settle the structure.

Assays:
[1] = system: endotoxic shock induced by intraperitoneal injection of 1 μg LPS in the presence of 20 mg D-galactosamine in laboratory mice; test: Endotoxic shock, low dose model (1 μg LPS + D-Gal), lethality; assay type: in vivo; conditions: Table 3; Low Dose Model (1 μg LPS + D-Gal); 1000-1250 μM ip prior to LPS
Protocol: Endotoxic shock was induced by intraperitoneal injection of 1 μg LPS into laboratory mice in the presence of 20 mg D-galactosamine (D-Gal). This regimen leads to a 90-100% lethality rate by 9-12 hours post injection. The following data in Tables 1-3 reports the mortality rate over 28 days of observation. In one experiment, animals were treated intra peritoneally with piceatannol. […]

[2] = system: septic shock induced by 1000 μg LPS intraperitoneally in mice; test: Septic shock, high dose model (1000 μg LPS), lethality; assay type: in vivo; conditions: Table 3; High Dose Model (1000 μg LPS); 1000 μM pre, 500 μM SC post every 12
Protocol: Endotoxic shock was induced by intraperitoneal injection of 1 μg LPS into laboratory mice in the presence of 20 mg D-galactosamine (D-Gal). This regimen leads to a 90-100% lethality rate by 9-12 hours post injection. The following data in Tables 1-3 reports the mortality rate over 28 days of observation. In one experiment, animals were treated intra peritoneally with piceatannol.
In another experiment, 1 mg of LPS was administered intraperitoneally. Piceatannol or tetramethoxy-piceatannol (TMP) were administered intraperitoneally prior to LPS treatment, with some mice receiving subcutaneous doses of either piceatannol or TMP following LPS administration.

COc1cc(/C=C/c2ccc(OC)c(OC)c2)cc(OC)c1 [TMP, tetramethoxy-piceatannol]
Mortality, dead/total [1]: 9 dead/24 total | Mortality, dead/total [2]: 7 dead/16 total
